Experimental findings from publication PMC10607241 are described below.

By UniProt entry, the sequences of proteins in these tests, tags left out. Residues count along the entry.
UniProt P08121, residues 155-1219: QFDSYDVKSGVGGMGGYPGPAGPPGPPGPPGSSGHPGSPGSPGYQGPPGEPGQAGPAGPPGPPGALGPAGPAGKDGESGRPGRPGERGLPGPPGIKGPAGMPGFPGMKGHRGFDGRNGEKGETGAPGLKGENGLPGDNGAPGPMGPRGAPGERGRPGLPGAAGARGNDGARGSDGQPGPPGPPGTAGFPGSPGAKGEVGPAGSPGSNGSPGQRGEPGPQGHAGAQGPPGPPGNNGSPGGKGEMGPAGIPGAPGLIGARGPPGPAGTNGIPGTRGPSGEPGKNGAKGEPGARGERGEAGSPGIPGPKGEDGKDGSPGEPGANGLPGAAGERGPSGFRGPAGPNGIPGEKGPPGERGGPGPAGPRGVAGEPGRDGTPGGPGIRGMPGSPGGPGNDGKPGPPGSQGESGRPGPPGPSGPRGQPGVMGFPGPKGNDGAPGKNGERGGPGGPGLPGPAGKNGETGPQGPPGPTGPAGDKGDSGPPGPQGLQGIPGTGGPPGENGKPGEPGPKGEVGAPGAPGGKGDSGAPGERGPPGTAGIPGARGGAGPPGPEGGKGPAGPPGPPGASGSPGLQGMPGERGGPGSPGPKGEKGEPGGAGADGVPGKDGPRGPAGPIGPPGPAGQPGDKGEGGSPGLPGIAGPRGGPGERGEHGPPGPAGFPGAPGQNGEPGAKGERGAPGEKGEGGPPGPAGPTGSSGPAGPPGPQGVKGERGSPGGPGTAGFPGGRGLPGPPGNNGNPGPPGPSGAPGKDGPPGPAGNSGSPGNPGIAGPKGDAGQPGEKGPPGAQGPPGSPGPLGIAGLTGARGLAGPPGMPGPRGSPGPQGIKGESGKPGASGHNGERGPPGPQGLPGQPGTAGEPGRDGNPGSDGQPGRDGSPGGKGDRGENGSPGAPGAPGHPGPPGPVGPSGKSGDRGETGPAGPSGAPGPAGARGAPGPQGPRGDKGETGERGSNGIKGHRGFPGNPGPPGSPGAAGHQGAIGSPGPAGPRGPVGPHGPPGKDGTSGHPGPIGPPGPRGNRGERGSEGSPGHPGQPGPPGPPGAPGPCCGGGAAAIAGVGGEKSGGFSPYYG

Results are given in words; binding and its absence hold for the method and conditions named. Some entries that bind do so weakly or less than the wild type. Where a sequence is shown, tags or fusion partners need not be part of it.

The assay addresses purified, pepsin-treated, full-length collagen III (mouse (adult murine skin)) (UniProt P08121). The assay is described as follows: ELISA; ELISA-like assay; Toolkit peptides coated at 10 µg/mL (1.0 µg/well) in 20 mM acetic acid overnight at 4 °C, collagen III at 5.0 µg/well; blocked with 5% BSA in HBST; 25 µM His-FKBP22 overnight at 4 °C in HBS (10 mM HEPES, pH 7.4, 0.15 M NaCl, 1 mM CaCl2); detected with HRP-conjugated 6xHis-tag antibody; A450, mean of the five lowest signals subtracted as baseline; both purified. For orientation: An ELISA detects its analyte on a solid surface through an enzyme-linked reagent.

B1: recombinant human FKBP22 with an amino terminal His-tag (His-FKBP22) (enzyme, UniProt Q9NWM8 20-211)
chain: ALIPEPEVKIEVLQKPFICHRKTKGGDLMLVHYEGYLEKDGSLFHSTHKHNNGQPIWFTLGILEALKGWDQGLKGMCVGEKRKLIIPPALGYGKEGKGKIPPESTLIFNIDLLEIRNGPRSHESFQEMDLNDDWKLSKDEVKAYLKKEFEKHGAVVNESHHDALVEDIFDKEDEDKDGFISAREFTYKHDEL
For the molecule B1, the binding result is listed as “binds”.
